Assay results published in PubChem BioAssay AID540276 (National Center for Advancing Translational Sciences (NCATS), 2011).
Values joined by “and” are separate entries in the source; they are usually repeats but may differ in a detail not shown here. Equal values may be shown once. About 5,400 (1.8%) of roughly 300,000 compounds were called active. The inconclusive results got no clear call from the source; some entries with a clear call stand among them for comparison. Calls come from the whole dose curve; tested in HEK293 cells. Where the call is inconclusive, the potency comes from a doubtful curve fit. Some compounds were tested as several samples or in several runs, with calls that do not always agree.

Experiment: qHTS for inhibitors of binding or entry into cells for Marburg Virus
Conditions: Marburg virus pseudotyped entry inhibition, cell reporter; activity change, negative = inhibition: at 37.8 µM (top of the series) unless noted
% is set by controls: 0 for no effect and ±100 for the full control effect; potency is the fitted concentration of half-maximal effect.

Row | SMILES | Potency | activity change, negative = inhibition
1 | CC(=O)N(CCCN(C)C)c1nc2ccc(C)cc2s1 | inconclusive: 7.94 µM [inhibitor, partial curve, poor fit] | –
2 | COCCC(=O)Nc1ccc2c(c1)CN(C(=O)CSC)CC2 | inconclusive: 11.2 µM [activator, partial curve, poor fit] | –
3 | C=C(C)COc1ccc(-c2n[nH]c(C)c2-c2ccccc2)c(O)c1 | inconclusive: 35.5 µM [inhibitor, single point] | –
4 | O=C(COC(=O)Cc1ccsc1)Nc1ccc(Br)cc1F | inconclusive: 7.94 µM [activator, partial curve, poor fit] | –
5 | COc1ccc2c(-c3ccccc3)cc(=S)[nH]c2c1 | inconclusive: 7.94 µM [inhibitor, partial curve, poor fit] | –
6 | O=C(CCCSc1nc2ccccc2[nH]1)N1CCN(c2ccc([N+](=O)[O-])cc2)CC1 | – | inactive: 1.7%
7 | CCc1ccc(NS(=O)(=O)c2ccc(OC)c(C)c2)cc1 | inconclusive: 29.1 µM [inhibitor, single point] | –
8 | COc1cccc(CN2CCN(Cc3[nH]c4ccccc4c3C)CC2CCO)c1 (stereo unspecified) | inconclusive: 15.8 µM [inhibitor, single point] | –
9 | Cc1ccc(NC(=O)c2oc3ccccc3c2NC(=O)C23CC4CC(CC(C4)C2)C3)cc1 | – | inactive: -13.4% [at 46.1 µM]
10 | O=C(Cc1c(F)cccc1Cl)N1CCOCC1 | inconclusive: 5.62 µM [activator, single point] | –
11 | CCOc1ccc(C(=O)Nc2cc(C)on2)cc1 | inconclusive: 8.2 µM [inhibitor, partial curve, poor fit] | –
12 | CC(C)Cn1c2c(c(O)c(C(=O)Nc3nc4ccccc4s3)c1=O)CCCC2 | inconclusive: 4.47 µM [inhibitor, single point] | –
13 | O=C(COc1ccccc1Br)NCc1ccccn1 | inconclusive: 6.51 µM [activator, single point] | –
14 | COCC(=O)Nc1nc2ccc(S(C)(=O)=O)cc2s1 | – | inactive: 16.8%
15 | Clc1ccc(-c2csc(N3CCN(c4ccccc4)CC3)n2)cc1 | – | inactive: 1.75%
16 | Cc1c(-c2ccccc2)oc2c(C(=O)N3CCN(c4ccccc4F)CC3)cccc2c1=O | inconclusive: 35.5 µM [activator, partial curve, poor fit] | –
17 | Cc1ccc(-n2nc(-c3ccco3)cc2C(=O)NCc2cccnc2)cc1 | inconclusive: 10 µM [inhibitor, partial curve, poor fit] | –
18 | NC(=O)CN1C2CCC1CC(NC(=O)C1CC1)C2 (stereo unspecified) | inconclusive: 22.4 µM [activator, single point] | –
19 | COc1ccc(S(=O)(=O)N2CCCC(C(=O)Nc3cccc(C(C)=O)c3)C2)cc1 (stereo unspecified) | inconclusive: 35.5 µM [inhibitor, single point] | –
20 | CC(C)N(C(=O)CSc1nnc(-c2ccc3c(c2)OCO3)n1C)C(C)C | inconclusive: 7.08 µM [inhibitor, partial curve, poor fit] | –
21 | O=S(=O)(c1cccc2c(Cl)cccc12)N1CCCNCC1 | active: 8.91 µM | –

Row | SMILES | Potency | activity change, negative = inhibition
22 | O=C(COc1ccccc1)N/N=C/c1cc2c(cc1[N+](=O)[O-])OCO2 | – | inactive: -10.3%
23 | COCC(C)n1c(C)cc(C(=O)COC(=O)c2ccc3c(c2)NC(=O)CS3)c1C (stereo unspecified) | – | inactive: 10.6%
24 | CCc1ccc(OCC(=O)Nc2cc(-c3nc4cc(C)ccc4o3)ccc2C)cc1 | inconclusive: 5.62 µM [activator, single point] | –
25 | O=C(Nc1nccs1)c1ccc(COc2ccccc2)o1 | inconclusive: 1.26 µM [activator, single point] | –
26 | COc1ccc(-c2c(C)nc(N)nc2-c2ccc(OCc3ccc(C)cc3)cc2O)cc1OC | inconclusive: 7.08 µM [inhibitor, partial curve, poor fit] | –
27 | O=C(CCl)Nc1cc(S(=O)(=O)N2CCCCCC2)ccc1Cl | inconclusive: 17.8 µM [inhibitor, partial curve, poor fit] | –
28 | CC(=O)Nc1ccc(S(=O)(=O)NC2=C(N3CCN(Cc4ccccc4)CC3)C(=O)c3ccccc3C2=O)cc1 | inconclusive: 7.08 µM [inhibitor, partial curve, poor fit] and inconclusive: 35.5 µM [inhibitor, partial curve, poor fit] | –
29 | COc1cc(C(=O)NC2CCCC2)c(Br)c(OC)c1OC | – | inactive: 16.8% [at 46.1 µM]
30 | CCc1ccc(OCC(=O)N/N=C(\C)c2ccc(-n3ccnc3)cc2)cc1 | inconclusive: 2.82 µM [activator, full curve] | –
31 | CC(C)(C)c1ccc(C(=O)NCCC(=O)Nc2ccc(S(=O)(=O)Nc3nccs3)cc2)cc1 | inconclusive: 35.5 µM [activator, single point] | –
32 | Cc1nnc(N2C(=O)C(=O)/C(=C(\O)c3ccc4c(c3)CC(C)O4)C2c2ccccc2)s1 (stereo unspecified) | – | inactive: -0.156% [at 46.1 µM]
33 | CCOc1ccc(C(C(=O)NCC2CCCO2)N(C(=O)c2snc(C(N)=O)c2N)c2ccc(F)cc2)cc1 (stereo unspecified) | inconclusive: 35.5 µM [inhibitor, single point] | –
34 | COc1ccc(Cc2nnc(NC(=O)Nc3ccccc3)s2)cc1OC | inconclusive: 5.62 µM [inhibitor, single point] | –
35 | COc1ccc(-c2nc(NC(=O)c3n[nH]c(=O)c4ccccc34)sc2C)cc1 | active: 0.794 µM | –
36 | CC(Sc1nc2ccccc2[nH]1)C(=O)Nc1ccccc1F (stereo unspecified) | inconclusive: 35.5 µM [inhibitor, single point] | –
37 | C=CCN(C(=O)CSc1nnnn1C)c1nc(-c2ccccc2)cs1 | inconclusive: 12.6 µM [activator, partial curve, poor fit] | –
38 | O=C(Nc1cccnc1)c1c(O)c2c(n(Cc3ccccc3)c1=O)CCCC2 | inconclusive: 35.5 µM [inhibitor, single point] | –
39 | COc1cc(CN=Cc2c(O)n(Cc3ccccc3)c(=S)[nH]c2=O)cc(OC)c1 | inconclusive: 0.316 µM [inhibitor, partial curve, poor fit] | –
40 | O=C(Nc1ccc(S(=O)(=O)NCC2CCCO2)cc1)c1ccccc1 (stereo unspecified) | inconclusive: 5.62 µM [inhibitor, single point] | –
41 | Cc1ccc(C)c(C(=O)C(C)OC(=O)CN2C(=O)NC3(CC(C)CC(C)(C)C3)C2=O)c1 (stereo unspecified) | – | inactive: -21.6%

Ordered by molar mass (smallest number first): three of the compounds above
Row | SMILES | Potency | activity change, negative = inhibition
7 | CCc1ccc(NS(=O)(=O)c2ccc(OC)c(C)c2)cc1 | inconclusive: 29.1 µM [inhibitor, single point] | –
38 | O=C(Nc1cccnc1)c1c(O)c2c(n(Cc3ccccc3)c1=O)CCCC2 | inconclusive: 35.5 µM [inhibitor, single point] | –
32 | Cc1nnc(N2C(=O)C(=O)/C(=C(\O)c3ccc4c(c3)CC(C)O4)C2c2ccccc2)s1 (stereo unspecified) | – | inactive: -0.156% [at 46.1 µM]
